# Primary screen of a compound library

The filed quantity is “Percent Effect” (%).
The controls that fix the scale are not given in the record; negative values are as filed.
This is an unselected part of the compounds tested.
Two or more numbers in one place are separate tests of the same structure; such repeats can differ widely.

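Growth of Mycobacterium tuberculosis over 4 days (cholesterol / DPPC medium with tyloxapol); the read-out is not stated. Compounds at 50 µM. Higher reads as more growth inhibition (inferred: compounds with an IC50 in retests scored well above the rest). Of about 69,000 compounds tested this way, about 370 (0.54%) reached 50% or more in at least one test.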

Compound | Percent Effect
Cc1cccc(N(CCC(N)=O)CC(=O)Nc2ccccc2)c1 | 4.819%
CC(CO)NC(=O)Nc1ccc(S(C)(=O)=O)nc1 (stereo not given) | -0.4271%
Cc1cc(-c2ccc(C(=O)O)cc2)nc(C2CCN(C(C)C)CC2)n1 | -20.39%
CC1CCC(NC(=O)CNC2(c3ccc(Br)cc3)CCOCC2)CC1 (stereo not given) | -1.111%
Cc1ccc(C(=O)N2CCC(Oc3ccc(C)c(C)c3)CC2)c(=O)[nH]1 | 8.386%
COCCOCC(=O)NC(C#N)c1c(F)cccc1Cl (stereo not given) | -3.314%
CN(C)CC1CSCCCN1S(=O)(=O)c1ccc(C(F)(F)F)cc1 (stereo not given) | 19.68%
CC(C)c1nc(CN(C)CC2CCN(CCO)CC2)no1 | 12.82%
Cn1cnc(S(=O)(=O)NCCN2CCCCCC2=O)c1Cl | -21.85%
CN(C)CC(=O)N1CCc2sc(C(=O)N3CCOCC3)cc21 | -7.56%
Cc1cc(CNc2ccc(-c3nc(C4CC4)no3)cn2)no1 | 25.89%
CCS(=O)(=O)c1ccccc1N1CCC(NC2CCCC2)CC1 | -24.17%
NCc1cn(-c2ccccc2C(=O)NCc2ccccc2)cn1 | -2.558%
Cc1nc2c(c(=O)n1C)CN(C(=O)C1CCCN(C(=O)N(C)C)C1)C2 (stereo not given) | -12.06% & 8.804%
CCC(C)(CNC(=O)Nc1nncs1)N1CCOCC1 (stereo not given) | -15.93%
Cc1nc(C)n(CC2CN(CCc3ccncc3)CCO2)n1 (stereo not given) | 3.155%
CCc1ccsc1CNC(=O)CNC(=O)C(C)(C)C | 8.728%
CN(C)CCN(C(=O)Cc1ccc2c(c1)OCCO2)C1CCN(C)CC1.O=C(O)CC(O)(CC(=O)O)C(=O)O | -8.05%
CC(=O)NCc1nc(CC(C)C)nn1-c1cccc(C)c1 | -11.09%
CCc1cccc(NC(=O)N2CCn3cnc(COC)c3C2)c1 | 24.35%
O=c1[nH]c(-c2ccncc2)ncc1-c1ccnc(NC2CC2)n1 | -33.31%
Cc1ccc2[nH]c(=O)c(CNCCCN3CCOCC3)cc2c1 | -6.213%
[H][C@]12CNC[C@@]1(C(=O)NCCSC(C)(C)C)CN(S(C)(=O)=O)C2 | 14.93%
NC(=O)c1nc(-c2cccc(Cl)c2)oc1N | -7.856%
CC(C)C(=O)Nc1ccc(C(O)Cn2nc(-c3cccs3)oc2=O)cc1 (stereo not given) | -4.849% & -9.004%
CCc1ccc(CN(C/C=C/c2ccccc2)CCOC)nc1 | 43.17%
CC(=O)N1CCCN(CCn2nc3ccccn3c2=O)CC1 | -16.61%
CN(C)C(=O)N1CCC2(CC(=O)N(c3ccc4c(c3)OCO4)C2)C1 (stereo not given) | -0.7217%
Cn1cnc(S(=O)(=O)NCCCN2CCCC2=O)c1Cl | -12.03%
CCC(CC)(CNC(=O)OC(C)(C)C)NC(=O)C1CCOCC1 | 13.97%
Cc1ccc(CNC(=O)Nc2nnc(C3CC3)s2)n1C | -41.7%
CN(C)C(=O)N1CCc2ccc(=O)[nH]c2CC1 | -5.165%
Cn1cnnc1CCNC(=O)c1ccccc1OC1CCC1 | -6.738%
O=C(c1cnc(C2CC2)s1)N1CCCC(n2cccn2)C1 (stereo not given) | -10.53%
CCOCCCNC(=O)CCCC(=O)n1nc(C)c2ccccc21 | -33.21%
COc1ccccc1N1CCN(CC(=O)NC(C)c2ccco2)CC1 (stereo not given) | 15.54%
c1ccc(-c2nnn3c2COC(CNCC2CC2)C3)cc1 (stereo not given) | 7.621% & 26.85%
COCCS(=O)(=O)Nc1ccc(-n2nccc2C(F)(F)F)cc1 | 1.418%
COc1ccccc1N1CCC(N2CCOCC(CO)C2)CC1 (stereo not given) | -31.02%
COc1cccc(OCCNC(=O)CN2CCN(C)CC2C)c1 (stereo not given) | 10.15%
O=C(CCn1ccnc1)N1CCCC(n2cncn2)C1 (stereo not given) | 4.644%
CC(C)Nc1ncccc1C(=O)NCc1ncc[nH]1 | -1.253%
COCC(=O)NCC1Cn2nnc(-c3ccoc3)c2CO1 (stereo not given) | 7.539%
CNS(=O)(=O)c1ccc(C(=O)N2CCCC2c2cnn(C)c2)o1 (stereo not given) | -0.7456%
CC(C)c1noc(C2CCN(C(=O)C3CCCO3)CC2)n1 (stereo not given) | -13.56%
CCc1cnc(N2Cc3cnc(C(C)(C)C)nc3C2)nc1 | 1.933%
CC(=O)N1CCC(c2cc(C(F)(F)F)n3ccnc3n2)CC1 | -27.98%
CN(C)C(=O)COCC1CN(Cc2ccco2)Cc2ncn(C)c21.O=C(O)C(F)(F)F.O=C(O)C(F)(F)F (stereo not given) | -12.77%
CCOc1cccc2c1OCC(C(=O)NS(=O)(=O)c1ccc(Cl)s1)=C2 | -8.353%
CC(Cc1ccco1)NC(=O)CSc1nnc[nH]1 (stereo not given) | 0.2325%
Cc1ccsc1C(=O)N1CCC2(CC(N(C)c3ccncn3)C2)C1 (stereo not given) | 3.578%
N#Cc1ccc(F)c(CNc2ccc(F)cc2OCCO)c1 | -13.19%
Cc1cccc(CNC(=O)CC2CCN(Cc3ccccn3)CC2)n1 | -9.999%
CN(CC(=O)Nc1ccncc1)C1CCCN(c2cccnn2)C1 (stereo not given) | -6.389%
Cc1noc(C)c1CN(C)C(=O)NC1CCOCC1 | -18.57%
[H][C@@]12CNC[C@]1([H])[C@H]2CN1CCC(c2nnc(CN(C)CCO)n2C)CC1 | 7.974% & -17.85%
Cc1nc(CCC(=O)NCC(N)=O)cc(C2CCNCC2)n1 | 1.334%
Cc1nnc2n1CCN(C(=O)CN(C)Cc1ccccc1)C2 | -15.34%
CNc1nc(C(=O)N2CCn3nc(C(=O)OC)cc3C2)cs1 | -4.129%
CC(C)(NCCOc1ccc(CC#N)cc1)c1nccs1 | -1.599%

Once more, the final 7:

Compound,Percent Effect
CN(CC(=O)Nc1ccncc1)C1CCCN(c2cccnn2)C1 (stereo not given),-6.389%
Cc1noc(C)c1CN(C)C(=O)NC1CCOCC1,-18.57%
[H][C@@]12CNC[C@]1([H])[C@H]2CN1CCC(c2nnc(CN(C)CCO)n2C)CC1,7.974% & -17.85%
Cc1nc(CCC(=O)NCC(N)=O)cc(C2CCNCC2)n1,1.334%
Cc1nnc2n1CCN(C(=O)CN(C)Cc1ccccc1)C2,-15.34%
CNc1nc(C(=O)N2CCn3nc(C(=O)OC)cc3C2)cs1,-4.129%
CC(C)(NCCOc1ccc(CC#N)cc1)c1nccs1,-1.599%

Data taken from ChEMBL document CHEMBL3988442, “University of Dundee, Small-Polar-MMV Screening Library” (2021).